From patent US20070292347A1 (LONDON HEALTH SCIENCES CENTRE RESEARCH, published 2007)

Molecular target: purified HLA-DRB1*0701 molecule (human)
Assay: peptide competition assay on purified MHC class II

B1: Vim 65-77, human vimentin peptide 65-77 (peptide)
peptide: SAVRARSSVPGVR
notes: Synthetic peptide (Genemed Synthesis); also called Vimentin 65-77; unmodified vimentin peptide
binding: binds

These are yes or no findings as the source states them, for the method shown. A result given as binding can be weak or reduced; the word gives no strength.
